For one molecule, binding results are on record in patent US20160159906A1.

Chains of the proteins cited; added tags and fusions are not shown. Lines headed by an entry give the natural chain unless they say otherwise; changes in a name come on top.
UniProt P40259: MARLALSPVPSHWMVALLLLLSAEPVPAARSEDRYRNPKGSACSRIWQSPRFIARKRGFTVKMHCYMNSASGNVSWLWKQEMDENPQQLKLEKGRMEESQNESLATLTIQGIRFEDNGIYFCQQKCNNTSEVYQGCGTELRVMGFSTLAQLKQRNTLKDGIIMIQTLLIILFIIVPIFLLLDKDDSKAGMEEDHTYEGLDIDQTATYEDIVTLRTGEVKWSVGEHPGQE

Results are given in words; binding and its absence hold for the method and conditions named. Some entries that bind do so weakly or less than the wild type.

In this test the target is human CD79b fused with an Fc domain at the C-terminus (printed at paragraph 314 as Human CD79a fused with an Fc domain) (human) (UniProt P40259). The test is described as follows: binding to huCD79b, method not named at this place (data not shown).

B1: CD79b.A7.v14b (antibody, V domains shown)
VH: EVQLVQSGAEVKKPGASVKVSCKASGYTFTTYYMNWVRQAPGQGLEWIGMIDPSDSETHYNQKFQGRATLTVDTSTSTAYLELSSLRSEDTAVYYCSRSLAFWGQGTLVTVSS
VL: DIVMTQTPLSLPVTPGQPASISCKSSQSLLDSDGKTYLNWLLQKPGQSPQSLIYLVSKLDSGVPDRFSGSGSGTDFTLKISRVEAEDVGVYYCWQGTHFPQTFGQGTKVEIK
As to B1, the binding result is listed as “binds”.
